# Library screening results

Source: ChEMBL document CHEMBL3988442, “University of Dundee, Small-Polar-MMV Screening Library” (2021).

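Whole-cell assay for inhibitors of Mycobacterium tuberculosis growth, labelled Cornell in the record; the read-out is not stated. The concentration is filed as 10 mM, unlikely as a test dose, so the dose is not known. Higher means stronger inhibition (inferred from two other growth screens of the library). About 53,000 compounds were tested under these conditions; 1.7% (about 900) showed 50% or more at least once.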

Each number is a percent effect as filed.
How 0% and 100% were set is not recorded. Most values in the screen are low, and negative values occur.
This is an unselected part of the compounds tested.

| Compound | percent effect |
|---|---|
| `CCC(O)CN(C)Cc1nnc2ccccn12` (centres unmarked) | 5.661% |
| `CNS(=O)(=O)c1ccc(CNC(=O)Nc2ccccn2)s1` | 0.06678% |
| `Nc1cc2c(nn1)CCN(C(=O)c1ccc(-c3ccco3)[nH]c1=O)C2` | 20% |
| `[H][C@]12CC[C@]([H])(CN(C(=O)C3CCC3)C1)N(S(=O)(=O)c1ccccc1)C2` | 7.133% |
| `CN(C)CCN1CCOCC2(CCCN(C(=O)c3cccn3C)C2)C1.O=C(O)C(F)(F)F.O=C(O)C(F)(F)F` (centres unmarked) | 16.16% |
| `CC(=O)N1CCN(C(=O)C(C)OCC(F)(F)F)CC1` (centres unmarked) | 0.6793% |
| `Cc1ccc(OCC(=O)NCc2sccc2C)nc1` | -25.32% |
| `N#Cc1cccc(NC(=O)N2CCCC(N3CCCC3=O)C2)c1` (centres unmarked) | 3.696% |
| `CCCc1noc(CCC(=O)N2CCCC(c3ccn[nH]3)C2)n1` (centres unmarked) | 8.101% |
| `Cc1noc(C)c1CSCc1csc(CS(C)(=O)=O)n1` | 12.34% |
| `CC1(C)OCC2(CO1)CN(S(=O)(=O)c1ccc(Cl)s1)C2` | 0.5081% |
| `Clc1ccc(Cc2nc(CNCCn3cccn3)cs2)cc1` | 60.1% |
| `Cc1ccc(NC(=O)CSCc2cccnc2)nc1` | -5.818% |
| `Cc1occc1C(=O)N1CCOC2(CCCC2)C1` | 13.45% |
| `Cc1nc(CN(C)C2CCN(CC3CCOCC3)C2)no1` (centres unmarked) | -1.72% |
| `Cc1noc(C)c1CN(C)Cc1csc(-c2ccc(C(C)C)cc2)n1` | 63.13% |
| `CN(CCc1ccccn1)C(=O)C(O)c1cc(Cl)cc(Cl)c1` (centres unmarked) | -2.739% |
| `Cc1cnn(CC2CN(CC(=O)Nc3ccncc3)CCO2)c1` (centres unmarked) | -7.135% |
| `[H][C@@]12CS(=O)(=O)C[C@]1([H])N(C(=O)c1cc(-c3ccc(C)o3)n[nH]1)CCN2CC` | -0.2092% |
| `CN1CCCC1c1cncc(C(=O)NCCN2CCCCC2)n1` (centres unmarked) | 5.104% |
| `CCOCC1c2c(ncn2C(C)C)CCN1C(C)C.O=C(O)C(F)(F)F.O=C(O)C(F)(F)F` (centres unmarked) | 5.187% |
| `COc1nc2c(cc1C(=O)N1C[C@H](N)C[C@H]1C(=O)NC(C)C)CCC2` | -37.21% |
| `N#Cc1cccnc1NCCNC(=O)N1CCSCC1` | -43.63% |
| `COCCC(=O)N1CC[C@@H](N2CCOCC2)[C@@H]1Cc1ccccc1.O=C(O)C(F)(F)F` | 6.415% |
| `O=C(O)c1cnc(N2CCCC2)nc1COc1ccccc1` | 28.87% |
| `COC(=O)C(C)Sc1nnnn1C1CCOCC1` (centres unmarked) | -9.319% |
| `O=C(CN1CCN(c2ccccc2F)CC1)Nc1ccc(Cl)cn1` | -5.527% |
| `COc1ccc(CN2CCC(CO)(Cc3ccc(Cl)cc3)CC2)c(O)c1` | 23.78% |
| `O=C(O)C(F)(F)F.c1cnc(N2CCOCC3(CN(Cc4cc[nH]n4)CCO3)C2)nc1` (centres unmarked) | -1.46% |
| `[H][C@@]12CN(C(=O)Cc3cccs3)C[C@]1([H])OCCN2Cc1csc(C)n1` | 13.07% |
| `O=C(C(O)c1ccccc1Cl)N1CCCN(Cc2cccnc2)CC1` (centres unmarked) | -8.571% |
| `O=C1CCc2cc(S(=O)(=O)NC(=O)c3ccc4c(c3)OCO4)ccc2N1` | 6.249% |
| `CN(CCNC(=O)N1CCCC1)C(=O)OC(C)(C)C` | -16.21% |
| `CS(=O)(=O)NCc1nnc2n1CCN(Cc1ccc(F)cc1)C2` | 26.68% |
| `CCC(CO)N(C/C(C)=C/c1ccco1)Cc1ccco1` (centres unmarked) | 6.414% |
| `COc1ccsc1C(=O)N1CCCC(n2nc(C)nc2C)C1` (centres unmarked) | 4.922% |
| `O=C(O)C(F)(F)F.[H][C@@]12COC[C@@H](C(=O)N3CCCCO3)[C@]1([H])CN(Cc1cc(C)on1)C2` | -2.64% |
| `COc1c(C2CCCN2C(=O)c2cc(C)on2)c(C)nn1C` (centres unmarked) | -47.97% |
| `CCOCCN1CCN(CCc2nc3ccccc3c(=O)[nH]2)CC1` | 106.8% |
| `CN(C)CC(=O)N1CCN(c2cc(N3CCCC3CO)ncn2)CC1` (centres unmarked) | 10.04% |
| `C=C(C)COc1ccccc1NC(=O)N1CCOCC(CO)C1` (centres unmarked) | 4.25% |
| `COc1cccc2c1OCC(CNC(=O)CCCN1CCOCC1)C2` (centres unmarked) | 4.272% |
| `CN(Cc1ccccc1Br)C(=O)Cn1nc(-c2ccc(F)cc2)oc1=O` | 0.4631% |
| `CCCNC(=O)CSc1nnc2[nH]c(=O)cc(CC)n12` | -10.67% |
| `CN(C)C(=O)C1CCCN1C(=O)c1ccc(Cn2ccnc2)o1` (centres unmarked) | -8.225% |
| `O=c1cc(Cn2ccnc2)nc2n1CCCN(Cc1ccc(F)cc1)C2` | -3.317% |
| `COCCC1CN(c2nc(-c3ccccc3)nc3c2CCNC3)CCO1` (centres unmarked) | 5.552% |
| `CC(C)n1cc(CN2CCCN(C(=O)c3cccn3C)CC2)cn1` | -23.72% |
| `CCC(NC(=O)CCCNC(=O)OC)c1cc(F)ccc1F` (centres unmarked) | 1.413% |
| `CNc1ccnc(NCCC(=O)Nc2ccccc2OC)n1` | -18.25% |
| `O=C(NCCO)NC(c1ccccc1)c1ccc2c(c1)CCCO2` (centres unmarked) | 4.488% |

For reference, 5 entries once more:

{"compound": "Cc1noc(C)c1CN(C)Cc1csc(-c2ccc(C(C)C)cc2)n1", "percent effect": 63.13}
{"compound": "O=C(O)c1cnc(N2CCCC2)nc1COc1ccccc1", "percent effect": 28.87}
{"compound": "COCCC(=O)N1CC[C@@H](N2CCOCC2)[C@@H]1Cc1ccccc1.O=C(O)C(F)(F)F", "percent effect": 6.415}
{"compound": "N#Cc1cccnc1NCCNC(=O)N1CCSCC1", "percent effect": -43.63}
{"compound": "Cc1ccc(NC(=O)CSCc2cccnc2)nc1", "percent effect": -5.818}